# Assay results reported in the supplement of paper PMC4635364.
# Counter-ions that a name gives are not always drawn. Some of the results follow. This data set is noisy: repeats of one test often differ as much as different tests do.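 Cells: ReNCell VM human fetal ventral-midbrain neural progenitors, differentiated mitogen-free. Blinded raters compared doublecortin-stained (early neurons) or tyrosine hydroxylase-stained (dopaminergic neurons) images with untreated wells, where 0 means no change. After repeats and both raters were averaged, compounds scoring 2 or above became hits for retesting.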
# Tested on: ReNCell VM
# Test: neuronal differentiation score (DCX+ cell fraction vs untreated, manual image score) (score (-3 to 3)); higher = more neuronal differentiation
# Conditions: library: LOPAC; 2 uM; 2 weeks
row,Structure (SMILES),neuronal differentiation score
1,OC[C@H]1NC[C@H](O)[C@@H](O)[C@@H]1O [1-Deoxynojirimycin hydrochloride],inactive: 0
2,NCCNC(=O)c1ncsc1-c1cccc(F)c1 [Ro 41-1049 hydrochloride],inactive: 0
3,CC(C)[C@H]1c2ccc(F)cc2CC[C@@]1(CCN(C)CCCc1nc2ccccc2[nH]1)OC(=O)C1CC1,inactive: 0
4,O=C(O)C1=CCCN(CCON=C(c2ccccc2)c2ccccc2)C1 [NO-711 hydrochloride],inactive: 0
5,O=C(OCCN1CCOCC1)C1(c2ccccc2)CCCCC1,inactive: 0
6,NC(=NCCC[C@H](N)C(=O)O)NO [NG-Hydroxy-L-arginine acetate],inactive: 0

# Entries listed so far that have fluorine:
row,Structure (SMILES),neuronal differentiation score
2,NCCNC(=O)c1ncsc1-c1cccc(F)c1 [Ro 41-1049 hydrochloride],inactive: 0
3,CC(C)[C@H]1c2ccc(F)cc2CC[C@@]1(CCN(C)CCCc1nc2ccccc2[nH]1)OC(=O)C1CC1,inactive: 0

# Same assay, conditions: library: Natural; 2 uM; 2 weeks
row,Structure (SMILES),neuronal differentiation score
1,COc1c2c(nc3occc13)C(CC=C(C)C)(OC)C(=O)C=C2 (stereo unspecified) [perfamine],inactive: 0
2,CC(C)=CCCC1=CCC(C(=O)O)C(C(=O)O)C1 (stereo unspecified),inactive: 0
3,COc1c2c(nc3ccccc13)OC(C(C)(O)CO)C2 (stereo unspecified) [dubinidine],inactive: 1

# Same assay, conditions: library: Prestwick; 2 uM; 2 weeks
row,Structure (SMILES),neuronal differentiation score
1,CCN1CCN(C(=O)N[C@@H](C(=O)N[C@@H]2C(=O)N3[C@@H]2SC(C)(C)[C@@H]3C(=O)O)c2ccccc2)C(=O)C1=O [Piperacillin sodium salt],inactive: 0
2,NC(=O)c1ccc[n+]([C@@H]2O[C@H](COP(=O)([O-])OP(=O)(O)OC[C@H]3O[C@@H](n4cnc5c(N)ncnc54)[C@H](O)[C@@H]3O)[C@@H](O)[C@H]2O)c1 [Nadide],inactive: 0
3,C[n+]1ccccc1/C=N/O [Pralidoxime chloride],inactive: 0
4,CCCCCN(C)CCC(O)(P(=O)(O)O)P(=O)(O)O [Ibandronate sodium],inactive: 0
5,CN[C@@H]1[C@H](O[C@H]2[C@H](O[C@H]3[C@H](O)[C@@H](O)[C@H](NC(=N)N)[C@@H](O)[C@@H]3NC(=N)N)O[C@@H](C)[C@]2(O)CO)O[C@@H](CO)[C@H](O)[C@H]1O [Dihydrostreptomycin sulfate],inactive: 0

# Same assay, conditions: library: Spectrum; 2 uM; 2 weeks
row,Structure (SMILES),neuronal differentiation score
1,CCOC(=O)Nc1nc2ccccc2[nH]1,inactive: 0
2,Nc1ccc(/N=N/c2ccccc2)c(N)n1,inactive: 0
3,CC(=O)OC1CCC23CC1(C)CCC2C(C)(C)CC3OC(C)=O (stereo unspecified),inactive: 0
4,CCCOc1ccccc1-c1nc2[nH]nnc2c(=O)[nH]1,inactive: 0
5,CCN(CC)CCOC(=O)C1(C2CCCCC2)CCCCC1,inactive: 0
6,COc1ccc2oc(-c3ccccc3)c(OC)c(=O)c2c1,inactive: 0
7,CCCCCC(C)N (stereo unspecified),inactive: 0
8,O=C(O)CCCCCCCC(O)C(O)CCCCCCO (stereo unspecified),inactive: 0
9,COc1ccc2c(c1)OC[C@@H](Cc1ccc(OC)c(OC)c1)[C@@H]2O,inactive: 0
10,CO[C@H]1/C=C/O[C@@]2(C)Oc3c(C)c(O)c4c(O)c(c(/C=N/N5CCN(C)CC5)c(O)c4c3C2=O)NC(=O)/C(C)=C\C=C\[C@H](C)[C@H](O)[C@@H](C)[C@@H](O)[C@@H](C)[C@H](OC(C)=O)[C@@H]1C,inactive: 0
11,CS(=O)(=O)c1ccc([C@@H](O)[C@@H](CF)NC(=O)C(Cl)Cl)cc1,inactive: 0
12,COc1ccc(C(=O)/C=C/c2ccccc2)cc1,inactive: 0
13,N[C@@H](CC(=O)O)C(=O)O,inactive: 0
14,CCN(CC)CCOC(=O)c1ccc(N)cc1,inactive: 1
15,O=C(O)COCCN1CCN([C@H](c2ccccc2)c2ccc(Cl)cc2)CC1,inactive: 0
16,O=C(Nc1ccc(C(=O)O)c(O)c1)c1ccccc1,inactive: 0
17,Cc1c(NC(=O)c2cccnc2)c(=O)n(-c2ccccc2)n1C,inactive: 0
18,Nc1ccccc1S(N)(=O)=O,inactive: 0

# Same assay, conditions: library: Tocriscreen; 2 uM; 2 weeks
row,Structure (SMILES),neuronal differentiation score
1,O=C(c1ccc(F)cc1)C1CCN(CCn2c(=S)[nH]c3ccccc3c2=O)CC1 [Altanserin hydrochloride],inactive: 0
2,COc1cc(C[C@H]2C(=O)OC[C@@H]2Cc2ccc(OC)c(OC)c2)ccc1O [Arctigenin],inactive: 0
3,OCC(CO)N[C@H]1C[C@](O)(CO)[C@@H](O)[C@H](O)[C@H]1O [Voglibose],inactive: 0
4,COc1ccc(-c2nc(C(=O)N3CCN(C)CC3)sc2-c2ccc(OC)cc2)cc1,inactive: 0
5,NS(=O)(=O)c1nn2cc(-c3ccccc3)nc2s1,inactive: 0
6,Cc1ccccc1N=Nc1ccc(NC(=O)c2ccnn2C)c(C)c1,inactive: 0
7,O=C(c1ccc(F)cc1)C1CCN(CCCCc2ccccc2)CC1 [4-(4-Fluorobenzoyl)-1-(4-phenylbutyl)-piperidine oxalate],active: 3
8,CO[C@@H]1[C@H](O)[C@@H](CO)O[C@H]1n1cnc2c(NC3CCCCC3)ncnc21,inactive: -3

# Tested on: ReNCell VM
# Test: dopaminergic neuron differentiation score (TH+ cell fraction vs untreated, manual image score) (score (0 to 3)); higher = more TH+ dopaminergic neuron differentiation
# Conditions: library: LOPAC; 2 uM; 4 weeks; BDNF 10 ng/ml + GDNF 10 ng/ml
row,Structure (SMILES),dopaminergic neuron differentiation score
1,OC[C@H]1NC[C@H](O)[C@@H](O)[C@@H]1O [1-Deoxynojirimycin hydrochloride],inactive: 0
2,NCCNC(=O)c1ncsc1-c1cccc(F)c1 [Ro 41-1049 hydrochloride],inactive: 0
3,CC(C)[C@H]1c2ccc(F)cc2CC[C@@]1(CCN(C)CCCc1nc2ccccc2[nH]1)OC(=O)C1CC1,inactive: 0
4,O=C(O)C1=CCCN(CCON=C(c2ccccc2)c2ccccc2)C1 [NO-711 hydrochloride],inactive: 0
5,O=C(OCCN1CCOCC1)C1(c2ccccc2)CCCCC1,inactive: 1
6,NC(=NCCC[C@H](N)C(=O)O)NO [NG-Hydroxy-L-arginine acetate],inactive: 0
